Measurements as given in the supplement of paper PMC10849652.
The other results are listed elsewhere or left out.

By UniProt entry, the sequences of proteins in these tests, tags left out. Where a name states a change or a piece, a line headed by the entry shows the natural chain unless it says otherwise.
UniProt O95782: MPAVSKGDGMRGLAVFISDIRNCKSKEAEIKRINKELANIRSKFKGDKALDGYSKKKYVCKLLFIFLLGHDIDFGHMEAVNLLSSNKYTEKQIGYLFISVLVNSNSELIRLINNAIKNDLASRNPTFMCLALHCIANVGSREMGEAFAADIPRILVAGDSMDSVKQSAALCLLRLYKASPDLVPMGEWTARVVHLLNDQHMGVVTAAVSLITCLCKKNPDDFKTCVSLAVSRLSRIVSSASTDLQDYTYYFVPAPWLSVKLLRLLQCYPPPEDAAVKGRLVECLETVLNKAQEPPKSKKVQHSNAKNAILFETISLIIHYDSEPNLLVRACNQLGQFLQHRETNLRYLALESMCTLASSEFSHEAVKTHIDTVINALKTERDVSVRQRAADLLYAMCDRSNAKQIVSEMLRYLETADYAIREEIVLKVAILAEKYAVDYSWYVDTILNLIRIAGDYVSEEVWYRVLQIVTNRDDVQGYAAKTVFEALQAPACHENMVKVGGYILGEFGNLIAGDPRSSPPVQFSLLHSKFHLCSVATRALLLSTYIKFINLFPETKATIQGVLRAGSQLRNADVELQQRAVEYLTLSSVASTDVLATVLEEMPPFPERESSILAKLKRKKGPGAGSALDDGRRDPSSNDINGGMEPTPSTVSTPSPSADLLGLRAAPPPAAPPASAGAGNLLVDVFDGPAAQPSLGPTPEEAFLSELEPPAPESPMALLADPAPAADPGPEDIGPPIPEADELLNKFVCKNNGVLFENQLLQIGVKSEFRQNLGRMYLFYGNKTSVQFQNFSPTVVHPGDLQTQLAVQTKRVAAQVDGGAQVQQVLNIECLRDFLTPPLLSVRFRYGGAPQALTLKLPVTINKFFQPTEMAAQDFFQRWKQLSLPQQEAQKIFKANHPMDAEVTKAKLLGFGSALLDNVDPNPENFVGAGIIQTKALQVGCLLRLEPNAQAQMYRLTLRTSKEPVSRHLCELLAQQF
UniProt P04075: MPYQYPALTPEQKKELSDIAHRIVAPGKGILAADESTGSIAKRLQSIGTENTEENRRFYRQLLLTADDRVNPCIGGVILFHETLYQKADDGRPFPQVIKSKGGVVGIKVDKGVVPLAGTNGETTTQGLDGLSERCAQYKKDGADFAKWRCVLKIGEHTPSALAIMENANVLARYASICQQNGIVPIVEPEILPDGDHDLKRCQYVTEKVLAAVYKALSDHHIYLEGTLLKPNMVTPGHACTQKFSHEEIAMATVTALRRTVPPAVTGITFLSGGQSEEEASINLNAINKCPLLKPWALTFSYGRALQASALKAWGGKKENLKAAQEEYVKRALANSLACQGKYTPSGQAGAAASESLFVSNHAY
UniProt Q63HQ0: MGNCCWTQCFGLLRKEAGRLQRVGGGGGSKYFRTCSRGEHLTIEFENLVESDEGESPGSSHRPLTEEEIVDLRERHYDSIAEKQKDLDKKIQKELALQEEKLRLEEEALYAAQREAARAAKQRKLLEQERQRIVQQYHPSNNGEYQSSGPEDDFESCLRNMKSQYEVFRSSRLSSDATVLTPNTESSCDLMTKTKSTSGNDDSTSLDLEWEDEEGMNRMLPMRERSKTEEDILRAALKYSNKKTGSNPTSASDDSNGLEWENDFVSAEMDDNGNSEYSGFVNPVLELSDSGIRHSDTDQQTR
UniProt Q8WVL7: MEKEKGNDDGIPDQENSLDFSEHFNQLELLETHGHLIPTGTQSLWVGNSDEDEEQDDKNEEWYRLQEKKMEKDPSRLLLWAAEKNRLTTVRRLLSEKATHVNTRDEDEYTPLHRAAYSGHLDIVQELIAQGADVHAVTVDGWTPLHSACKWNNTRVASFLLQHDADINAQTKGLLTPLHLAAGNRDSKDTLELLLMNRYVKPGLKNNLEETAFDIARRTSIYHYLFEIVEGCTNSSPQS
UniProt Q9UJX4, whole entry, looked up: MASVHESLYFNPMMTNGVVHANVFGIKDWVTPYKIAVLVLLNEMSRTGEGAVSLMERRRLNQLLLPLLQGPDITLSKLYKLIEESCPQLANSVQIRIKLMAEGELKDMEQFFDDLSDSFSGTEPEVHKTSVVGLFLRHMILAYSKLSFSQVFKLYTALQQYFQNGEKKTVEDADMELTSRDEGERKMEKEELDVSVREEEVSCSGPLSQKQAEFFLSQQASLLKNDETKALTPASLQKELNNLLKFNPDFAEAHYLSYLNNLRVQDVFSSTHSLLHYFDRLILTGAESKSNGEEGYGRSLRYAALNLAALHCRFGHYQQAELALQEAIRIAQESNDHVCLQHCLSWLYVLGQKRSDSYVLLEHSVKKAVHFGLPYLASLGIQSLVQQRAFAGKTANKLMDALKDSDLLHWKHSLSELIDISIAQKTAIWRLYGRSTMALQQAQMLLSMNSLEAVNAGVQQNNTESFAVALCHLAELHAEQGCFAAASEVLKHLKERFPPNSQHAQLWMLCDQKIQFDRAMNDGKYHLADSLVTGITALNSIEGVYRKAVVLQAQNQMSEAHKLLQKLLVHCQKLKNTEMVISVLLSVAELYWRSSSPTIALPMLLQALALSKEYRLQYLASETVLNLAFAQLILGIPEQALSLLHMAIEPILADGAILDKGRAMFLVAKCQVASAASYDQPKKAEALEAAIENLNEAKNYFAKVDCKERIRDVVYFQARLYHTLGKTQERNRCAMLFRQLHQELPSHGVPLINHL
UniProt Q9UJX5, whole entry, looked up: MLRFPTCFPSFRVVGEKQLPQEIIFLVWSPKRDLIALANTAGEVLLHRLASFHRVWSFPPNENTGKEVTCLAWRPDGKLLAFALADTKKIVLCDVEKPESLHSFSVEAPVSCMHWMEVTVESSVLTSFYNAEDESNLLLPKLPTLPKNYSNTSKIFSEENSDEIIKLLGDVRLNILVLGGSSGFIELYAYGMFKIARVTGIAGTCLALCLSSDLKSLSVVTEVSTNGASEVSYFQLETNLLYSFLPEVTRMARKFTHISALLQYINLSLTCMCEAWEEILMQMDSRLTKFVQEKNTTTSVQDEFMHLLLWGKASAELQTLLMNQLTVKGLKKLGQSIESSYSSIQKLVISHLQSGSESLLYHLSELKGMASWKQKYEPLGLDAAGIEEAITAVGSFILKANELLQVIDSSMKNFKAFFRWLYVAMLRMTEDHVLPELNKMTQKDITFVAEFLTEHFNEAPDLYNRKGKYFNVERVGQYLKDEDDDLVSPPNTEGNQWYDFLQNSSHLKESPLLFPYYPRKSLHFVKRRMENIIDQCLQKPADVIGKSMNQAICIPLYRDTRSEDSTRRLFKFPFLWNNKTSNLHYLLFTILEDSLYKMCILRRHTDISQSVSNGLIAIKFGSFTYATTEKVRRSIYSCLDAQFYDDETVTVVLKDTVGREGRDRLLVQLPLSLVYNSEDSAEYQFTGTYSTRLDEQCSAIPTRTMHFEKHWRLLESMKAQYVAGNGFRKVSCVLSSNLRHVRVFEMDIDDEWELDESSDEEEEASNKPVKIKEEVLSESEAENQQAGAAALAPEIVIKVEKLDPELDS
UniProt Q8IY63: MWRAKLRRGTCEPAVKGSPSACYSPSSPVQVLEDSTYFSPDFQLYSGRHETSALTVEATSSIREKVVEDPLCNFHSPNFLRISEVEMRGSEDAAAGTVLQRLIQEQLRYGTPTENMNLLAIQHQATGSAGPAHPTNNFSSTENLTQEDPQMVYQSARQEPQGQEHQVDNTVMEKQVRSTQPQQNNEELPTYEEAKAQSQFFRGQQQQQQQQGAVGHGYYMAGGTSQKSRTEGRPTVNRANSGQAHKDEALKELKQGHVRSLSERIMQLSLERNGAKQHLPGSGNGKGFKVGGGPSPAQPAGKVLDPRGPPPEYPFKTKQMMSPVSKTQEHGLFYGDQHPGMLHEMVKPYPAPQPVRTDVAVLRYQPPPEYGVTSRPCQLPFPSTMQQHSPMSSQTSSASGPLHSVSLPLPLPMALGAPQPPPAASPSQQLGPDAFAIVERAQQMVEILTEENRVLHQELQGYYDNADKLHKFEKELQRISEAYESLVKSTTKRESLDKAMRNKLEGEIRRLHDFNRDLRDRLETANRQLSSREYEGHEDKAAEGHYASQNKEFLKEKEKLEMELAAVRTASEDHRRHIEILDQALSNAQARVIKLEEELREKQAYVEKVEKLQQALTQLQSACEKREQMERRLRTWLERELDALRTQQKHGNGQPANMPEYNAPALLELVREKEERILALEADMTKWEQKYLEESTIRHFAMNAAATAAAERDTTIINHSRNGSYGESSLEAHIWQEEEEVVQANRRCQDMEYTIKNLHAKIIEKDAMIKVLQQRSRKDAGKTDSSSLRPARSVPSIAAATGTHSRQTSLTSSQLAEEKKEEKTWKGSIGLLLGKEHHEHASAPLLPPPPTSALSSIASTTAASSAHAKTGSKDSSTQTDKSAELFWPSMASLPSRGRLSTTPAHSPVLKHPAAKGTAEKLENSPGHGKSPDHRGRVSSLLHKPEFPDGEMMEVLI
UniProt Q9Y4X0: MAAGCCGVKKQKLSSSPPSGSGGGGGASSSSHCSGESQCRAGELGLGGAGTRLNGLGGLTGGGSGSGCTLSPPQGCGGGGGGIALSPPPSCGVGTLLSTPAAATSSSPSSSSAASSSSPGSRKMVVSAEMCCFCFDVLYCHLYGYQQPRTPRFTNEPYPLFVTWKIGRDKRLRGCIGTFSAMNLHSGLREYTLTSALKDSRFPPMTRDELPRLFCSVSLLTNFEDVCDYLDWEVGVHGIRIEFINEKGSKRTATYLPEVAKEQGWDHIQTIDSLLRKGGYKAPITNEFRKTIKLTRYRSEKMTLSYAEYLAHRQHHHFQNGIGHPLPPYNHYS
UniProt P08133: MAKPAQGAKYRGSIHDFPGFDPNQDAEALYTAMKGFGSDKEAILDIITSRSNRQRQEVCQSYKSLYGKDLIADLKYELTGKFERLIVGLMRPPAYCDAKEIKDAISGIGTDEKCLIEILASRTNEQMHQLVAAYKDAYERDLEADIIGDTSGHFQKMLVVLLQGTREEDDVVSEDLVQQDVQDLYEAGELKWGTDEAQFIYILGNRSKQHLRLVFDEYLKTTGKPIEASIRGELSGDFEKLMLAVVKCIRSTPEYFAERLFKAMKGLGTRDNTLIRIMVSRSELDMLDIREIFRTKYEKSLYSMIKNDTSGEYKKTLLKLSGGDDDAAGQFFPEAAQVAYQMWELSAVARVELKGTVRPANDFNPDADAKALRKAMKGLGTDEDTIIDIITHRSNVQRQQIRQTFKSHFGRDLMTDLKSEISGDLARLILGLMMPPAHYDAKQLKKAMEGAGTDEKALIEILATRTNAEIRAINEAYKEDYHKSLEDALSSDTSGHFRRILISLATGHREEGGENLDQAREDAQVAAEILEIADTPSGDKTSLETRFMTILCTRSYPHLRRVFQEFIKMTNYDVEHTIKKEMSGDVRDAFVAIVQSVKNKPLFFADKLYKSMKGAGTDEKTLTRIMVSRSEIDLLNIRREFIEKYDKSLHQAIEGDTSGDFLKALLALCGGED
UniProt P09525: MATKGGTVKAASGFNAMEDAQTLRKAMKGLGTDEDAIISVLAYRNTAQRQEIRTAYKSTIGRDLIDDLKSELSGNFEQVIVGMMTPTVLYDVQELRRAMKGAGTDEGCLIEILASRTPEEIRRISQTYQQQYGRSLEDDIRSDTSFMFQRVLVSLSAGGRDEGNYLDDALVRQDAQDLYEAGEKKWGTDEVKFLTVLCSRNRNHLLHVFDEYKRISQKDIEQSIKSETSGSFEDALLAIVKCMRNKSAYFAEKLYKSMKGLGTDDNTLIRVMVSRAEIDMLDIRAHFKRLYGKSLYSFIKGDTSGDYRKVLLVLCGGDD
UniProt Q6NS38: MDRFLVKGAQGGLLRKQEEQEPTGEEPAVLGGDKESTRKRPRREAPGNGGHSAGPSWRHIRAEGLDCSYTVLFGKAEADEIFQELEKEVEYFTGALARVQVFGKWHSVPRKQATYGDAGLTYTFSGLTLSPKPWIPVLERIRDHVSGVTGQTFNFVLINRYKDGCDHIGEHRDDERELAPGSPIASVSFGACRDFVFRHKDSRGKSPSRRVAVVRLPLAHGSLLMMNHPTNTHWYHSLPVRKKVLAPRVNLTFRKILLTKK
UniProt P56377: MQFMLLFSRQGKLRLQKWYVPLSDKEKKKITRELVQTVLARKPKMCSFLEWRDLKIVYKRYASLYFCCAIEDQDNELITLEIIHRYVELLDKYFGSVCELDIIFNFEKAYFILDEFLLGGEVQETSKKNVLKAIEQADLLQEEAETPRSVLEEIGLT
UniProt P04083: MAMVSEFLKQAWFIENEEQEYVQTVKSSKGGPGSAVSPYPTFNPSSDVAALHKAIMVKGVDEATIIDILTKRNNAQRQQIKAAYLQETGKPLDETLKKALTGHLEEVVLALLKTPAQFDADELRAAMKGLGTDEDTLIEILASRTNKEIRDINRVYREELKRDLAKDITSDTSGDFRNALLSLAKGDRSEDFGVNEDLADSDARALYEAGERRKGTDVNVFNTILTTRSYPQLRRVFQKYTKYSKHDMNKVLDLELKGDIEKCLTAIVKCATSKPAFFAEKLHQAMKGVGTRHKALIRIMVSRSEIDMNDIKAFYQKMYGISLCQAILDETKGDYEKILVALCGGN

How the values were obtained:
Experiment in all cases: log2 fold change, soluble protein after heating vs DMSO (PISA); higher = thermal stabilisation; K562 lysate, 10 uM; active = over 0.2 and 3.5 SD of the protein, either way, in both replicates (recomputed)
[1] = compound: C#Cc1cccc(Nc2ncnc3cc(OCCOC)c(OCCOC)cc23)c1 [erlotinib]
Procedure, shortened: (§1)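 K562 pellets were dounce-homogenised in PBS pH 7.4 containing 1 mM MgCl2, and the crude extract, at 1 mg/mL protein, was exposed to 10 μM compound for 30 min. Aliquots were heated for 3 min across 48°C-58°C, pooled, brought to 0.5% NP-40 at 4°C and spun at 21,000xg for 90 min, with the supernatant taken as soluble protein. TMTpro 16plex LC-MS/MS with equalised channel sums quantified that protein. Values are log-two fold changes in thermal stability relative to solvent controls, taken from duplicates.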

[2] = compound: C/C(=N\NC(=O)C1=CC(=CC=C1)S(=O)(=O)N2CCOCC2)/C3=C(C=CC(=C3)Cl)O
Procedure, shortened: as §1

[3] = compound: C1=CC(=CC=C1C2=NC3=C(N2)C=C(C=C3)C(=O)N)OC4=CC=C(C=C4)Cl
Procedure, shortened: as §1

[4] = compound: C1=CC2=C(C=CC(=C2)/C=C\3/C(=O)NC(=NCC4=CC=CS4)S3)N=C1
Procedure, shortened: as §1

[5] = compound: C1=CC2=NC=CN=C2C=C1/C=C/3\C(=O)NC(=O)S3
Procedure, shortened: as §1

[6] = compound: C1=CC=C(C=C1)C2=NC(=C(N2)C3=CC=NC=C3)C4=CC(=C(C=C4)Cl)O
Procedure, shortened: as §1

[7] = compound: C1=CC=C2C(=C1)C3=NNC4=CC=CC(=C43)C2=O
Procedure, shortened: as §1

[8] = compound: C1CCN(C1)C(=O)NC2=CC=CC(=C2)NC3=NC=C(C(=N3)NCCC4=CN=CN4)Br
Procedure, shortened: as §1

[9] = compound: C1CN(CCC1(CC2=CC=C(C=C2)Cl)N)C3=NC=NC4=C3C=CN4
Procedure, shortened: as §1

[10] = compound: C1COCCN1CCN2C3=CC=CC=C3N=C2NC(=O)C4=CC(=CC=C4)[N+](=O)[O-] [IRAK-1-4 Inhibitor I]
Procedure, shortened: as §1

Measured: log2 fold change

AP2A1 (UniProt O95782)
inactive: [1] -0.015 | [2] 0.026 | [3] -0.011 | [4] 0.022 | [5] -0.027 | [6] 0.006 | [7] -0.032 | [8] -0.048 | [9] 0.008 | [10] 0.034

ALDOA (UniProt P04075)
inactive: [1] -0.014 | [2] 0.038 | [3] 0.024 | [4] -0.016 | [5] -0.008 | [6] -0.003 | [7] 0.02 | [8] 0.006 | [9] -0.018 | [10] 0.015

ALG9 isoform 3 (UniProt Q9H6U8)
inactive: [1] 0.069 | [2] -0.086 | [3] 0 | [4] -0.013 | [5] -0.046 | [6] -0.023 | [7] 0.004 | [8] 0.023 | [9] -0.011 | [10] 0.087

ANXA5 (UniProt P08758)
inactive: [1] -0.011 | [2] -0.001 | [3] -0.024 | [4] 0.014 | [5] -0.016 | [6] -0.023 | [7] 0.009 | [8] -0.003 | [9] -0.049 | [10] -0.03

ALMS1 (UniProt Q8TCU4)
inactive: [1] 0.023 | [2] -0.055 | [3] -0.011 | [4] -0.18 | [5] -0.028 | [6] 0.051 | [7] 0.068 | [8] -0.056 | [9] 0.009 | [10] -0.036

ANXA3 (UniProt P12429)
inactive: [1] -0.014 | [2] 0.243 | [3] -0.001 | [4] 0.014 | [5] -0.041 | [6] -0.051 | [7] -0.016 | [8] -0.014 | [9] -0.012 | [10] -0.085

AKT1 (UniProt P31749)
inactive: [1] -0.008 | [2] 0.042 | [3] -0.004 | [4] 0.121 | [5] 0.019 | [6] 0.059 | [7] 0.018 | [8] -0.034 | [9] 0.03 | [10] -0.005

ALDH1A1 (UniProt P00352)
inactive: [1] -0.048 | [2] 0.044 | [3] -0.054 | [4] 0.048 | [5] 0.008 | [6] -0.033 | [7] 0.132 | [8] 0.027 | [9] 0.012 | [10] -0.029

AP1AR (UniProt Q63HQ0)
inactive: [1] -0.198 | [2] 0.045 | [3] 0.161 | [4] 0.015 | [5] 0.042 | [6] 0.004 | [7] -0.007 | [8] 0.01 | [9] 0.049 | [10] -0.046

ANKRD49 (UniProt Q8WVL7)
inactive: [1] 0.021 | [2] 0.03 | [3] 0.016 | [4] 0.033 | [5] 0.031 | [6] -0.028 | [7] 0.035 | [8] 0.024 | [9] -0.02 | [10] 0.003

ANAPC5 (UniProt Q9UJX4)
inactive: [1] 0.008 | [2] -0.025 | [3] -0.004 | [4] -0.006 | [5] 0.011 | [6] 0.031 | [7] 0 | [8] -0.008 | [9] 0.009 | [10] 0.001

ANAPC4 isoform 3 (UniProt Q9UJX5)
inactive: [1] 0.035 | [2] -0.052 | [3] -0.022 | [4] 0 | [5] -0.003 | [6] -0.001 | [7] -0.041 | [8] -0.018 | [9] 0.031 | [10] 0.019

AMOTL1 (UniProt Q8IY63)
inactive: [1] -0.032 | [2] -0.275 | [3] 0.001 | [4] -0.267 | [5] 0.034 | [6] 0.056 | [7] 0.047 | [8] 0.039 | [9] 0.054 | [10] -0.002

AMMECR1 (UniProt Q9Y4X0)
inactive: [1] 0.007 | [2] 0.003 | [3] 0.019 | [4] -0.045 | [5] 0.004 | [6] -0.009 | [7] -0.001 | [8] 0.009 | [9] 0.019 | [10] 0.002

AP3M1 (UniProt Q9Y2T2)
inactive: [1] 0.003 | [2] -0.135 | [3] -0.018 | [4] 0.009 | [5] -0.018 | [6] 0 | [7] 0.019 | [8] -0.004 | [9] -0.007 | [10] -0.014

ANAPC1 (UniProt Q9H1A4)
inactive: [1] 0.016 | [2] 0.011 | [3] -0.037 | [4] -0.024 | [5] 0.014 | [6] -0.006 | [7] 0.004 | [8] -0.014 | [9] 0.017 | [10] 0.013

ALG3 (UniProt Q92685)
inactive: [1] 0.19 | [2] -0.117 | [3] -0.12 | [4] -0.037 | [5] 0.056 | [6] -0.016 | [7] -0.182 | [8] -0.103 | [9] -0.037 | [10] 0.019

ANXA6 (UniProt P08133)
inactive: [1] 0.019 | [2] 0.052 | [3] -0.004 | [4] -0.003 | [5] -0.011 | [6] 0.011 | [7] -0.004 | [8] 0.008 | [9] -0.018 | [10] 0.034

ANXA4 (UniProt P09525)
inactive: [1] 0.006 | [2] 0.093 | [3] -0.007 | [4] -0.015 | [5] -0.002 | [6] -0.023 | [7] -0.024 | [8] -0.025 | [9] -0.025 | [10] -0.046

ANLN (UniProt Q9NQW6)
inactive: [1] -0.006 | [2] -0.142 | [3] 0.007 | [4] -0.019 | [5] -0.072 | [6] 0.01 | [7] -0.019 | [8] -0.045 | [9] -0.002 | [10] -0.017

ALKBH2 (UniProt Q6NS38)
inactive: [1] 0.025 | [2] -0.023 | [3] -0.031 | [4] -0.024 | [5] 0.008 | [6] -0.047 | [7] -0.073 | [8] 0.015 | [9] 0.04 | [10] -0.01

ANXA2 isoform 2 (UniProt P07355)
inactive: [1] -0.009 | [2] 0.041 | [3] 0.023 | [4] -0.003 | [5] 0.003 | [6] 0.004 | [7] 0.025 | [8] -0.006 | [9] -0.001 | [10] -0.01

Pulled one by one from the list above, 2 records:
ANXA6 (UniProt P08133)
inactive: [1] 0.019 | [2] 0.052 | [3] -0.004 | [4] -0.003 | [5] -0.011 | [6] 0.011 | [7] -0.004 | [8] 0.008 | [9] -0.018 | [10] 0.034

ANXA4 (UniProt P09525)
inactive: [1] 0.006 | [2] 0.093 | [3] -0.007 | [4] -0.015 | [5] -0.002 | [6] -0.023 | [7] -0.024 | [8] -0.025 | [9] -0.025 | [10] -0.046

Later entries

AP3M2 (UniProt P53677)
inactive: [1] 0.055 | [2] 0.061 | [3] -0.024 | [4] -0.176 | [5] -0.018 | [6] -0.208 | [7] -0.198 | [8] -0.081 | [9] 0.088 | [10] -0.002

ANKRD28 (UniProt O15084)
inactive: [1] 0.032 | [2] -0.022 | [3] -0.01 | [4] 0.007 | [5] 0.017 | [6] 0.014 | [7] -0.009 | [8] -0.026 | [9] -0.018 | [10] 0

AP1S2 isoform 2 (UniProt P56377)
inactive: [1] -0.072 | [2] -0.095 | [3] -0.088 | [4] 0.024 | [5] -0.017 | [6] -0.007 | [7] 0.037 | [8] -0.019 | [9] -0.022 | [10] 0.003

ANXA1 (UniProt P04083)
inactive: [1] -0.012 | [2] 0.013 | [3] 0.015 | [4] 0.014 | [5] -0.009 | [6] -0.008 | [7] -0.021 | [8] 0.003 | [9] 0.016 | [10] -0.013

ANXA11 (UniProt P50995)
inactive: [1] 0.015 | [2] 0.031 | [3] 0.025 | [4] -0.022 | [5] 0.017 | [6] -0.079 | [7] -0.016 | [8] 0.011 | [9] 0.033 | [10] 0.006

ANKS1A (UniProt Q92625)
inactive: [1] 0.049 | [2] 0.428 | [3] -0.041 | [4] -0.017 | [5] -0.037 | [6] 0.01 | [7] -0.014 | [8] 0.026 | [9] 0.009 | [10] 0.006

ALG12 (UniProt Q9BV10)
inactive: [1] 0.019 | [2] -0.043 | [3] -0.007 | [4] 0.01 | [5] -0.135 | [6] -0.02 | [7] 0.056 | [8] -0.017 | [9] 0.081 | [10] 0.04
